In patent publication US11891352B2, “Aminomethyl-functionalized denatonium derivatives, their preparation and use” (Julius-Maximilians-Universitaet Wuerzburg, priority 2018, dated 2024):

Columns and labels:
[1] = Taste testing with electronic tongue, sensor SB2AC0 (potential)
[2] = Taste testing with electronic tongue, sensor SB2AN0 (potential)
[3] = 0.05 mM, Example 3 first measurement (FIG. 1), compound 2 acetylated on the free amino group
[4] = 0.1 mM, Example 3 first measurement (FIG. 1), compound 2 acetylated on the free amino group
[5] = 0.1 mM, Example 3 further measurement (FIG. 4), compound 2 acetylated
[6] = 0.5 mM, Example 3 first measurement (FIG. 1), compound 2 acetylated on the free amino group
[7] = 0.5 mM, Example 3 further measurement (FIG. 4), compound 2 acetylated
[8] = 1 mM, Example 3 first measurement (FIG. 1), compound 2 acetylated on the free amino group
[9] = 1 mM, Example 3 further measurement (FIG. 4), compound 2 acetylated
[10] = concentration printed only as "mM" (last point of range 0.1 mM to 5 mM), Example 3 further measurement (FIG. 4), compound 2 acetylated
[11] = 1.0 mM, Example 3 first measurement (FIG. 1), compound 2 acetylated on the free amino group
[12] = 5 mM, Example 3 further measurement (FIG. 4), compound 2 acetylated

Question: With “SL10K: coupling product of compound 2 and the peptide GPQGIAGA (SEQ ID NO: 5), Example 6 (coupled to compound 2)” as the compound, how does the “potential, sensor SB2AC0” value ([1]; 0.1 mM, Example 6 (FIG. 6)) read?
Answer: The value was −113 mV.

Question: What about the “potential, sensor SB2AC0” value ([1]; 0.5 mM, Example 6 (FIG. 6)) of the same compound?
Answer: Its value is −114 mV.

Question: And the “potential, sensor SB2AC0” value ([1]; 1.0 mM, Example 6 (FIG. 6))?
Answer: Its value is −124 mV.

Question: Which results are given for `CC[N+](CC)(CC(=O)Nc1c(C)cccc1C)Cc1ccc(CN)cc1` [compound 2]?
Answer: potential, sensor SB2AN0 [2, 3]: −66 mV; potential, sensor SB2AN0 [2, 4]: −65 mV; potential, sensor SB2AN0 [2, 5]: −73 mV; potential, sensor SB2AN0 [2, 6]: −64 mV; potential, sensor SB2AN0 [2, 7]: −68 mV; potential, sensor SB2AN0 [2, 8]: −62 mV; potential, sensor SB2AN0 [2, 9]: −65 mV; potential, sensor SB2AN0 [2, 10]: −39 mV; potential, sensor SB2AC0 [1, 3]: −89 mV; potential, sensor SB2AC0 [1, 4]: −89 mV; potential, sensor SB2AC0 [1, 5]: −58 mV; potential, sensor SB2AC0 [1, 6]: −88 mV; potential, sensor SB2AC0 [1, 7]: −56 mV; potential, sensor SB2AC0 [1, 11]: −85 mV; potential, sensor SB2AC0 [1, 9]: −54 mV; potential, sensor SB2AC0 [1, 12]: −37 mV

Question: Which “potential, sensor SB2AN0” value [2, 3] does the source give for `CC[N+](CC)(CC(=O)Nc1c(C)cccc1C)Cc1ccccc1` [denatonium benzoate, benzyldiethyl(2,6-xylyl-carbamoyl)methylammonium benzoate] here?
Answer: The value was −66 mV.

Question: What about the “potential, sensor SB2AN0” value [2, 4] of the same compound?
Answer: Its value is −64 mV.

Question: And the “potential, sensor SB2AN0” value [2, 5]?
Answer: The value was −71 mV.

Question: And the “potential, sensor SB2AN0” value ([2]; 0.1 mM, Example 6 (FIG. 6))?
Answer: The value was −120 mV.

Question: What about the “potential, sensor SB2AN0” value [2, 6] of the same compound?
Answer: The value was −53 mV.

Question: What about the “potential, sensor SB2AN0” value [2, 7] of the same compound?
Answer: The value was −58 mV.

Question: What about the “potential, sensor SB2AN0” value ([2]; 0.5 mM, Example 6 (FIG. 6)) of the same compound?
Answer: Its value is −94 mV.

Question: What about the “potential, sensor SB2AN0” value [2, 8] of the same compound?
Answer: The value was −42 mV.

Question: What about the “potential, sensor SB2AN0” value [2, 9] of the same compound?
Answer: The value was −45 mV.

Question: What about the “potential, sensor SB2AN0” value ([2]; 1.0 mM, Example 6 (FIG. 6)) of the same compound?
Answer: The value was −75 mV.

Question: What about the “potential, sensor SB2AN0” value [2, 10] of the same compound?
Answer: Its value is 12 mV.

Question: What about the “potential, sensor SB2AC0” value [1, 3] of the same compound?
Answer: The value was −88 mV.

Question: What about the “potential, sensor SB2AC0” value [1, 4] of the same compound?
Answer: The value was −85 mV.

Question: What about the “potential, sensor SB2AC0” value [1, 5] of the same compound?
Answer: Its value is −56 mV.

Question: What about the “potential, sensor SB2AC0” value ([1]; 0.1 mM, Example 6 (FIG. 6)) of the same compound?
Answer: The value was −107 mV.

Question: And the “potential, sensor SB2AC0” value [1, 6]?
Answer: The value was −59 mV.

Question: What about the “potential, sensor SB2AC0” value [1, 7] of the same compound?
Answer: The value was −45 mV.

Question: What about the “potential, sensor SB2AC0” value ([1]; 0.5 mM, Example 6 (FIG. 6)) of the same compound?
Answer: Its value is −89 mV.

Question: What about the “potential, sensor SB2AC0” value [1, 11] of the same compound?
Answer: Its value is −44 mV.

Question: What about the “potential, sensor SB2AC0” value [1, 9] of the same compound?
Answer: Its value is −36 mV.

Question: And the “potential, sensor SB2AC0” value ([1]; 1.0 mM, Example 6 (FIG. 6))?
Answer: Its value is −73 mV.

Question: What about the “potential, sensor SB2AC0” value [1, 12] of the same compound?
Answer: Its value is 11 mV.
